Results published in patent publication US9198422B2, “Pesticidal pyrazole compounds” (BASF SE, priority 2011, dated 2015).
Some entries share one result that the patent states for a list of compounds.

Assays:
Format in all cases: in vivo
[1] = system: Megoura viciae; experiment: B.4 Vetch aphid bean leaf disk microtiter test; settings: 2500 ppm; 6 days
[2] = system: Myzus persicae; experiment: B.5 Green peach aphid spray test on bell pepper plants; settings: 10 ppm; after 5 days
[3] = system: Bemisia argentifolii; experiment: B.3 Silverleaf whitefly, adult, spray test on cotton plants; settings: 10 ppm; 3 days after treatment
Experimental: B.3 Silverleaf Whitefly (Bemisia argentifolii, Adult)
The active compounds were formulated in cyclohexanone as a 10,000 ppm solution supplied in 1.3 ml ABgene® tubes. These tubes were inserted into an automated electrostatic sprayer equipped with an atomizing nozzle and they served as stock solutions for which lower dilutions were made in 1:1 (vol:vol) water:aceton. A nonionic surfactant (Kinetic®) was included in the solution at a volume of 0.01% (v/v).
Cotton plants at the cotyledon stage (one plant per pot) were sprayed by an automated electrostatic plant sprayer equipped with an atomizing spray nozzle. The plants were dried in the sprayer fume hood and then removed from the sprayer. Each pot was placed into a plastic cup and 10 to 12 whitefly adults (approximately 3-5 days old) were introduced. The insects were collected using an aspirator and 0.6 cm, nontoxic Tygon® tubing (R-3603) connected to a barrier pipette tip. The tip, containing the collected insects, was then gently inserted into the soil containing the treated plant, allowing insects to crawl out of the tip to reach the foliage for feeding. Cups were covered with a reusable screened lid (150-micron mesh polyester screen PeCap from Tetko, Inc.). Test plants were maintained in a growth room at 25° C. and 20-40% relative humidity for 3 days, avoiding direct exposure to fluorescent light (24 hour photoperiod) to prevent trapping of heat inside the cup. Mortality was assessed 3 days after treatment, compared to untreated control plants.

[4] = system: Aphis craccivora; experiment: B.1 Cowpea aphid spray test on potted cowpea plants; settings: 500 ppm; population reduction assessed after 24, 72 and 120 hours
[5] = system: Aphis gossypii; experiment: B.2 Cotton aphid, mixed life stages, spray test on cotton plants; settings: 10 ppm; after 5 days

Measured: mortality in comparison with untreated controls

Cc1c(C(=O)Nc2cccnc2)cnn1C(C)C(C)F (single isomer, unassigned) [I-157]
at least 75%: all assays above

Cc1c(C(=O)Nc2ccnnc2)cnn1C(C)C1(C#N)CC1 (centres unmarked) [I-93]
at least 75%: all assays above

Cc1c(C(=O)N(C)c2ccnnc2)cnn1C1CCCCC1 [I-13]
at least 75%: all assays above

Cc1c(C(=O)Nc2cccnc2)cnn1C(C)C(F)(F)F (centres unmarked) [I-376]
at least 75%: all assays above

Cc1c(C(=O)N(C)c2ccnnc2)cnn1C(C)C(C)F (single isomer, unassigned) [I-155]
at least 75%: all assays above

Cc1c(C(=O)N(C)c2ccnnc2)cnn1C1(C#N)CC1 [I-181]
at least 75%: all assays above

Cc1c(C(=O)N(C)c2ccnnc2)cnn1C1(C(F)(F)F)CCOCC1 [I-129]
at least 75%: all assays above

CCN(C(=O)c1cnn(C2CCOCC2)c1C)c1ccnnc1 [I-22]
at least 75%: all assays above

Cc1c(C(=O)Nc2cccnc2)cnn1C(C)CF (centres unmarked) [I-145]
at least 75%: all assays above

CCC(n1ncc(C(=O)N(C)c2ccnnc2)c1C)C(F)(F)F (centres unmarked) [I-103]
at least 75%: all assays above

CCN(C(=O)c1cnn(C(C)CCOC)c1C)c1ccnnc1 (centres unmarked) [I-138]
at least 75%: all assays above

Cc1c(C(=O)Nc2ccnnc2)cnn1C(C)C(F)(F)C(F)F (racemic) [I-31]
at least 75%: all assays above

COCN(C(=O)c1cnn(C(C)C(F)(F)F)c1C)c1ccnnc1 (centres unmarked) [I-372]
at least 75%: all assays above

Cc1c(C(=O)N(C)c2ccnnc2)cnn1C1CCOCC1 [I-23]
at least 75%: all assays above

Cc1c(C(=O)Nc2ccnnc2)cnn1C(C)C(F)(F)C(F)C(F)(F)F (centres unmarked) [I-30]
at least 75%: all assays above

COCC(C)n1ncc(C(=O)N(C)c2ccnnc2)c1C (centres unmarked) [I-5]
at least 75%: all assays above

CCN(C(=O)c1cnn(C(C)CF)c1C)c1cccnc1 (centres unmarked) [I-144]
at least 75%: all assays above

COCN(C(=O)c1cnn(C(C)C(C)C)c1C)c1ccnnc1 (centres unmarked) [I-97]
at least 75%: all assays above

Cc1c(C(=O)Nc2ccnnc2)cnn1C(C)C1CC1 (centres unmarked) [I-366]
at least 75%: all assays above

CCC(n1ncc(C(=O)N(COC)c2ccnnc2)c1C)C(F)(F)F (centres unmarked) [I-105]
at least 75%: all assays above

Cc1c(C(=O)Nc2ccnnc2)cnn1C1CCOCC1 [I-21]
at least 75%: all assays above

CCN(C(=O)c1cnn(C(C)(C)C#N)c1C)c1ccnnc1 [I-173]
at least 75%: all assays above
